Laboratory results reported in the supplement of paper PMC9015667.
Where a name gives a salt, the structure may show the parent alone. Some of the results follow. Many values rest on one well or one pass, so single values are uncertain.

How the values were obtained:
Experiment in all cases: reduction in cell viability relative to untreated/vehicle; higher = more growth inhibition
Details in all cases: 200 nM; 72 h
M229P = test system: M229P (parental melanoma line)
M229R = test system: M229R (matched melanoma line resistant to BRAF inhibitors)
M238P = test system: M238P (parental melanoma line)
M238R = test system: M238R (matched melanoma line resistant to BRAF inhibitors)
M249P = test system: M249P (parental melanoma line)
M249R = test system: M249R (matched melanoma line resistant to BRAF inhibitors)
UACC62P = test system: UACC62P (parental melanoma line)
UACC62R = test system: UACC62R (matched melanoma line resistant to BRAF inhibitors)

Compound | reduction in cell viability (M229P) [%] | reduction in cell viability (M229R) [%] | reduction in cell viability (M238P) [%] | reduction in cell viability (M238R) [%] | reduction in cell viability (M249P) [%] | reduction in cell viability (M249R) [%] | reduction in cell viability (UACC62P) [%] | reduction in cell viability (UACC62R) [%]
CCS(=O)(=O)N1CC(CC#N)(n2cc(-c3ncnc4[nH]ccc34)cn2)C1 [Baricitinib] | < 0 | < 0 | < 0 | < 0 | < 0 | < 0 | < 0 | < 0
CCOC(=O)N1CCN(/[N+]([O-])=N/Oc2ccc([N+](=O)[O-])cc2C#N)CC1 | < 0 | < 0 | < 0 | < 0 | < 0 | < 0 | 0.21 | < 0
COc1cc(C(C)C)c2c(c1)S(=O)(=O)N(COc1cc(=O)n3cccc(OCCN4CCCCC4)c3n1)C2=O | < 0 | < 0 | < 0 | < 0 | < 0 | < 0 | < 0 | < 0
CC1=C(C)C(=O)C(C(CCCCCC(=O)O)c2ccccc2)=C(C)C1=O (racemic) | < 0 | 6.57 | 6.06 | < 0 | < 0 | < 0 | < 0 | < 0
CN(C)[C@@H]1C(O)=C(C(N)=O)C(=O)[C@@]2(O)C(O)=C3C(=O)c4c(O)cccc4[C@@](C)(O)[C@H]3[C@H](O)[C@@H]12 [Oxytetracycline] | < 0 | < 0 | < 0 | < 0 | < 0 | < 0 | < 0 | < 0
CC(=O)NCCC(=O)N[C@@H](CCC(N)=O)C(=O)N[C@@H](CO)C(=O)N[C@@H](CCC(N)=O)C(=O)N[C@@H](CCC(N)=O)C(=O)N[C@H](C(=O)N[C@@H](Cc1ccccc1)C(=O)N[C@]1(C)CCCCCC/C=C\CCC[C@@](C)(C(=O)N[C@@H](CCC(N)=O)C(=O)N[C@@H](CC(N)=O)C(N)=O)NC(=O)[C@H](CC(C)C)NC(=O)[C@H](CC(C)C)NC(=O)[C@@H](CCCNC(=N)N)NC(=O)[C@H](Cc2c[nH]c3ccccc23)NC(=O)[C@H](CC(C)C)NC(=O)[C@H](CC(N)=O)NC1=O)[C@H](C)O | < 0 | < 0 | < 0 | < 0 | < 0 | < 0 | < 0 | < 0
COc1ccc(C2CC(=O)c3c(O)cc(OC4OC(COC5OC(C)C(O)C(O)C5O)C(O)C(O)C4O)cc3O2)cc1OC (stereo not drawn) [Methyl Hesperidin] | < 0 | < 0 | < 0 | < 0 | < 0 | < 0 | < 0 | < 0
C[C@H]1COC2=C1C(=O)C(=O)c1c2ccc2c1CCCC2(C)C [Cryptotanshinone] | < 0 | < 0 | < 0 | < 0 | < 0 | < 0 | < 0 | < 0
CNC(=O)c1nn(C)c2c1C(C)(C)Cc1cnc(Nc3ccc(N4CCN(C)CC4)cc3)nc1-2 [Milciclib] | 10.6 | 11.7 | 29.8 | 14.6 | 4.6 | 24.8 | 24.9 | 37.4
Cc1ccc(-n2nc(C(C)(C)C)cc2NC(=O)Nc2ccc(OCCN3CCOCC3)c3ccccc23)cc1 [Doramapimod] | < 0 | < 0 | < 0 | < 0 | < 0 | < 0 | < 0 | < 0
OCCNC1CCCc2c1[nH]c1ccc(-c3ccccc3)cc21 (stereo not drawn) | < 0 | 20.1 | < 0 | < 0 | < 0 | < 0 | < 0 | < 0
O=C1c2c(O)cc(O)cc2O[C@H](c2cc(O)c(O)c(O)c2)[C@H]1O [Dihydromyricetin] | < 0 | < 0 | < 0 | < 0 | < 0 | < 0 | < 0 | < 0
COc1nc(C)cnc1NS(=O)(=O)c1cccnc1-c1ccc(-c2nnco2)cc1 [Zibotentan] | < 0 | < 0 | < 0 | < 0 | < 0 | < 0 | < 0 | < 0
O=C1Cc2cc(CCN3CCN(c4nsc5ccccc45)CC3)c(Cl)cc2N1 [Ziprasidone hydrochloride] | < 0 | < 0 | < 0 | < 0 | < 0 | 2.18 | < 0 | < 0
O=C(c1ccc(OCCN2CCCCC2)cc1)c1c(-c2ccc(O)cc2)sc2cc(O)ccc12 [Raloxifene hydrochloride] | < 0 | < 0 | < 0 | < 0 | < 0 | < 0 | < 0 | < 0
O=c1c(-c2ccc(O)cc2)coc2cc(O[C@@H]3O[C@H](CO)[C@@H](O)[C@H](O)[C@H]3O)ccc12 [Daidzin] | < 0 | < 0 | < 0 | < 0 | < 0 | < 0 | < 0 | < 0
c1ccc2[nH]c(-c3cscn3)nc2c1 [Thiabendazole] | < 0 | < 0 | < 0 | < 0 | < 0 | < 0 | < 0 | < 0
COc1ccccc1OCC(O)CN1CCN(CC(=O)Nc2c(C)cccc2C)CC1 (stereo not drawn) [Ranolazine] | < 0 | < 0 | < 0 | < 0 | < 0 | < 0 | < 0 | < 0
CO/N=C(\C(=O)N[C@@H]1C(=O)N2C(C(=O)O)=C(CSC(=O)c3ccco3)CS[C@H]12)c1csc(N)n1 [Ceftiofur hydrochloride] | < 0 | < 0 | < 0 | < 0 | < 0 | < 0 | < 0 | < 0
Cn1c(=O)c2c(ncn2C)n(C)c1=O [Caffeine, citrated] | < 0 | < 0 | < 0 | < 0 | < 0 | < 0 | 3.83 | < 0
COC(=O)/C=C/C(=O)OC [Dimethyl fumarate] | < 0 | < 0 | < 0 | < 0 | < 0 | < 0 | < 0 | < 0

Filtered by structure, those above with a cyano group (2)
Compound | reduction in cell viability (M229P) [%] | reduction in cell viability (M229R) [%] | reduction in cell viability (M238P) [%] | reduction in cell viability (M238R) [%] | reduction in cell viability (M249P) [%] | reduction in cell viability (M249R) [%] | reduction in cell viability (UACC62P) [%] | reduction in cell viability (UACC62R) [%]
CCS(=O)(=O)N1CC(CC#N)(n2cc(-c3ncnc4[nH]ccc34)cn2)C1 [Baricitinib] | < 0 | < 0 | < 0 | < 0 | < 0 | < 0 | < 0 | < 0
CCOC(=O)N1CCN(/[N+]([O-])=N/Oc2ccc([N+](=O)[O-])cc2C#N)CC1 | < 0 | < 0 | < 0 | < 0 | < 0 | < 0 | 0.21 | < 0

Further entries

Compound | reduction in cell viability (M229P) [%] | reduction in cell viability (M229R) [%] | reduction in cell viability (M238P) [%] | reduction in cell viability (M238R) [%] | reduction in cell viability (M249P) [%] | reduction in cell viability (M249R) [%] | reduction in cell viability (UACC62P) [%] | reduction in cell viability (UACC62R) [%]
C#C[C@]1(O)CC[C@H]2[C@@H]3CCC4=CC(=O)CC[C@@H]4[C@H]3CC[C@@]21CC [Levonorgestrel] | < 0 | < 0 | < 0 | < 0 | < 0 | 6.75 | < 0 | < 0
O=C1[C@H](CC[C@H](O)c2ccc(F)cc2)[C@@H](c2ccc(O)cc2)N1c1ccc(F)cc1 [Ezetimibe] | < 0 | 0.18 | < 0 | < 0 | < 0 | < 0 | < 0 | < 0
O=C(O)CCn1c2c(c3ccccc31)C[C@H](NS(=O)(=O)c1ccc(F)cc1)CC2 [Ramatroban] | < 0 | < 0 | < 0 | < 0 | < 0 | < 0 | < 0 | < 0
CC(C)OC(=O)C1=CN(C(=O)c2ccc(F)c(F)c2)CC(C)(C)c2c1[nH]c1ccccc21 [Turofexorate isopropyl] | < 0 | < 0 | < 0 | < 0 | < 0 | < 0 | < 0 | < 0
NC[C@H]1O[C@H](O[C@H]2[C@H](O)[C@@H](O[C@H]3O[C@H](CO)[C@@H](O)[C@H](N)[C@H]3O)[C@H](N)C[C@@H]2N)[C@H](N)C[C@@H]1O [Tobramycin] | < 0 | < 0 | < 0 | < 0 | < 0 | 4.74 | < 0 | < 0
NC(=O)Cc1cccc(C(=O)c2ccccc2)c1N [Nepafenac] | < 0 | < 0 | < 0 | < 0 | 2.12 | < 0 | < 0 | < 0
C=C1/C(=C\C=C2/CCC[C@]3(C)[C@@H]([C@H](C)CCCC(C)(C)O)CC[C@@H]23)C[C@@H](O)C[C@@H]1O [Calcitriol] | < 0 | < 0 | < 0 | < 0 | < 0 | < 0 | < 0 | < 0
CC(C)(C)c1[nH]cnc1/C=c1\[nH]c(=O)/c(=C/c2ccccc2)[nH]c1=O [Plinabulin] | 38.3 | 55.3 | 61.9 | 54.5 | 62.1 | 45.4 | 51.8 | 81.6
Cc1ccccc1N1C(=O)c2cc(S(N)(=O)=O)c(Cl)cc2NC1C (stereo not drawn) [Metolazone] | < 0 | < 0 | < 0 | < 0 | 0.57 | < 0 | < 0 | < 0
Oc1cc(O)cc(/C=C/c2ccc(O)c(O)c2)c1 [Piceatannol] | < 0 | 0.81 | < 0 | < 0 | < 0 | < 0 | < 0 | < 0
CC(=O)N[C@H]1[C@H]([C@H](O)[C@H](O)CO)OC(C(=O)O)=C[C@@H]1NC(=N)N [Zanamivir] | < 0 | 32.2 | 24.5 | 34 | < 0 | 4.46 | 31.2 | 46.3
C[C@H]1C[C@@H]2[C@H]([C@@H](O)C[C@@]3(C)[C@H]2CC[C@]3(O)C(=O)CO)[C@@]2(C)C=CC(=O)C=C12 [Methylprednisolone] | < 0 | < 0 | < 0 | < 0 | < 0 | < 0 | < 0 | < 0
Cc1cccc(C)c1OCC(=O)N[C@@H](Cc1ccccc1)[C@@H](O)C[C@H](Cc1ccccc1)NC(=O)[C@H](C(C)C)N1CCCNC1=O [Lopinavir] | < 0 | < 0 | < 0 | < 0 | < 0 | < 0 | 8.55 | < 0
Cc1nc(Nc2ncc(C(=O)Nc3c(C)cccc3Cl)s2)cc(N2CCN(CCO)CC2)n1 [Dasatinib] | < 0 | 13.3 | 11.9 | 48.1 | < 0 | < 0 | < 0 | < 0
C=CCc1cc(OC)c(O)c(C(=O)NCCO)c1 [Alibendol] | < 0 | < 0 | < 0 | < 0 | < 0 | < 0 | < 0 | < 0
C[C@]12C=CC(=O)C=C1CC[C@@H]1[C@@H]2[C@@H](O)C[C@@]2(C)[C@H]1CC[C@]2(O)C(=O)CO [Prednisolone] | < 0 | < 0 | < 0 | < 0 | < 0 | < 0 | < 0 | < 0
CC[C@H](C)n1cc(C)c2c(C(=O)NCc3c(C)cc(C)[nH]c3=O)cc(-c3ccc(N4CCNCC4)nc3)cc21 | 6.78 | < 0 | < 0 | < 0 | < 0 | < 0 | < 0 | < 0
CN(C)C(=N)NC(=N)N [Metformin HCl] | < 0 | < 0 | < 0 | < 0 | < 0 | < 0 | < 0 | < 0
Cc1c(Cn2c(C)nc3c(C(=O)O)cc(N4CCOCC4)cc32)cccc1C(F)(F)F | < 0 | < 0 | < 0 | < 0 | < 0 | < 0 | < 0 | < 0
CN1CCN2c3ccccc3Cc3ccccc3C2C1 (stereo not drawn) [Mianserin] | < 0 | < 0 | < 0 | < 0 | < 0 | < 0 | < 0 | < 0
